Measured values published in the supplement of paper PMC4604168 (melanoma cell lines).
The other results are listed elsewhere or left out. Many values rest on one well or one pass, so single values are uncertain.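 Cells were imaged in 1,536-well plates, and nuclei stained with an antibody against cleaved PARP were counted against all DNA-stained nuclei to give the apoptosis fraction. Screening doses were chosen to leave most cells alive, and resting and induced cleaved-PARP levels differ strongly between cell lines.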

Assays:
Assay in all cases: cleaved PARP positive nuclei fraction relative to DMSO control; melanoma cells; higher = more apoptosis
Details in all cases: library dose: low library concentration; 72 h
501Mel = system: 501Mel
A101D = system: A101D
A2058 = system: A2058
A375 = system: A375
C32 = system: C32
CBRC008 = system: CBRC008 (line from a melanoma biopsy)
CBRC014 = system: CBRC014 (line from a melanoma biopsy)
CBRC016 = system: CBRC016 (line from a melanoma biopsy)
CBRC017 = system: CBRC017 (line from a melanoma biopsy)
CBRC034 = system: CBRC034 (line from a melanoma biopsy)
COLO792 = system: COLO792
COLO800 = system: COLO800
COLO829 = system: COLO829
G361 = system: G361
IPC-298 = system: IPC-298
IST-MEL1 = system: IST-MEL1
LB2518-MEL = system: LB2518-MEL
LOXIMVI = system: LOXIMVI
MEL-HO = system: MEL-HO

N#CC[C@H](C1CCCC1)n1cc(-c2ncnc3[nH]ccc23)cn1 [ruxolitinib] + C[C@]1(c2nc3c(C(N)=O)cccc3[nH]2)CCCN1 [Veliparib] (first compound 1 µM, partner dose 1.4 µM)
cleaved PARP positive nuclei fraction (501Mel): 96.9% | cleaved PARP positive nuclei fraction (A101D): 148% | cleaved PARP positive nuclei fraction (A2058): 273% | cleaved PARP positive nuclei fraction (A375): 161% | cleaved PARP positive nuclei fraction (C32): 69.2% | cleaved PARP positive nuclei fraction (CBRC008): 70.6% | cleaved PARP positive nuclei fraction (CBRC014): 114% | cleaved PARP positive nuclei fraction (CBRC016): 172% | cleaved PARP positive nuclei fraction (CBRC017): 158% | cleaved PARP positive nuclei fraction (CBRC034): 58.7% | cleaved PARP positive nuclei fraction (COLO792): 84.8% | cleaved PARP positive nuclei fraction (COLO800): 113% | cleaved PARP positive nuclei fraction (COLO829): 56.3% | cleaved PARP positive nuclei fraction (G361): 61.8% | cleaved PARP positive nuclei fraction (IPC-298): 44.6% | cleaved PARP positive nuclei fraction (IST-MEL1): 122% | cleaved PARP positive nuclei fraction (LB2518-MEL): 60% | cleaved PARP positive nuclei fraction (LOXIMVI): 92.5% | cleaved PARP positive nuclei fraction (MEL-HO): 240%

CC[C@]1(O)C[C@H]2CN(CCc3c([nH]c4ccccc34)[C@@](C(=O)OC)(c3cc4c(cc3OC)N(C=O)[C@H]3[C@@](O)(C(=O)OC)[C@H](OC(C)=O)[C@]5(CC)C=CCN6CC[C@]43[C@@H]65)C2)C1 [vincristine] + CCN(CC)CCNC(=O)c1c(C)[nH]c(/C=C2\C(=O)Nc3ccc(F)cc32)c1C [sunitinib] (first compound 0.0001 µM, partner dose 0.4 µM)
cleaved PARP positive nuclei fraction (501Mel): 92.2% | cleaved PARP positive nuclei fraction (A101D): 84% | cleaved PARP positive nuclei fraction (A2058): 238% | cleaved PARP positive nuclei fraction (A375): 78.7% | cleaved PARP positive nuclei fraction (C32): 85.2% | cleaved PARP positive nuclei fraction (CBRC008): 32.5% | cleaved PARP positive nuclei fraction (CBRC014): 98.2% | cleaved PARP positive nuclei fraction (CBRC016): 50.5% | cleaved PARP positive nuclei fraction (CBRC017): 121% | cleaved PARP positive nuclei fraction (CBRC034): 123% | cleaved PARP positive nuclei fraction (COLO792): 57.7% | cleaved PARP positive nuclei fraction (COLO800): 110% | cleaved PARP positive nuclei fraction (COLO829): 141% | cleaved PARP positive nuclei fraction (G361): 131% | cleaved PARP positive nuclei fraction (IPC-298): 88.6% | cleaved PARP positive nuclei fraction (IST-MEL1): 115% | cleaved PARP positive nuclei fraction (LB2518-MEL): 181% | cleaved PARP positive nuclei fraction (LOXIMVI): 118% | cleaved PARP positive nuclei fraction (MEL-HO): 249%

O=C(/C=C/c1cccnc1)NCCCCC1CCN(C(=O)c2ccccc2)CC1 + Cn1cnc2c(F)c(Nc3ccc(Br)cc3Cl)c(C(=O)NOCCO)cc21 [selumetinib] (first compound 0.01 µM, partner dose 0.015 µM)
cleaved PARP positive nuclei fraction (501Mel): 356% | cleaved PARP positive nuclei fraction (A101D): 143% | cleaved PARP positive nuclei fraction (A2058): 104% | cleaved PARP positive nuclei fraction (A375): 71.6% | cleaved PARP positive nuclei fraction (C32): 177% | cleaved PARP positive nuclei fraction (CBRC008): 4440% | cleaved PARP positive nuclei fraction (CBRC014): 105% | cleaved PARP positive nuclei fraction (CBRC016): 348% | cleaved PARP positive nuclei fraction (CBRC017): 521% | cleaved PARP positive nuclei fraction (CBRC034): 722% | cleaved PARP positive nuclei fraction (COLO792): 791% | cleaved PARP positive nuclei fraction (COLO800): 226% | cleaved PARP positive nuclei fraction (COLO829): 362% | cleaved PARP positive nuclei fraction (G361): 7110% | cleaved PARP positive nuclei fraction (IPC-298): 186% | cleaved PARP positive nuclei fraction (IST-MEL1): 97.4% | cleaved PARP positive nuclei fraction (LB2518-MEL): 554% | cleaved PARP positive nuclei fraction (LOXIMVI): 166% | cleaved PARP positive nuclei fraction (MEL-HO): 123%

O=C(Nc1cc(C(F)(F)F)cc(C(F)(F)F)c1)c1cc(Cl)ccc1O + NC1(c2ccc(-c3nc4ccn5c(=O)[nH]nc5c4cc3-c3ccccc3)cc2)CCC1 [MK2206] (first compound 0.016 µM, partner dose 0.4 µM)
cleaved PARP positive nuclei fraction (501Mel): 214% | cleaved PARP positive nuclei fraction (A101D): 60.8% | cleaved PARP positive nuclei fraction (A2058): 75.9% | cleaved PARP positive nuclei fraction (A375): 199% | cleaved PARP positive nuclei fraction (C32): 523% | cleaved PARP positive nuclei fraction (CBRC008): 110% | cleaved PARP positive nuclei fraction (CBRC014): 97.1% | cleaved PARP positive nuclei fraction (CBRC016): 31.2% | cleaved PARP positive nuclei fraction (CBRC017): 113% | cleaved PARP positive nuclei fraction (CBRC034): 133% | cleaved PARP positive nuclei fraction (COLO792): 83.5% | cleaved PARP positive nuclei fraction (COLO800): 158% | cleaved PARP positive nuclei fraction (COLO829): 171% | cleaved PARP positive nuclei fraction (G361): 147% | cleaved PARP positive nuclei fraction (IPC-298): 58.6% | cleaved PARP positive nuclei fraction (IST-MEL1): 44.9% | cleaved PARP positive nuclei fraction (LB2518-MEL): 56.3% | cleaved PARP positive nuclei fraction (LOXIMVI): 158% | cleaved PARP positive nuclei fraction (MEL-HO): 41.1%

O=C(/C=C/c1cccnc1)NCCCCC1CCN(C(=O)c2ccccc2)CC1 + Cn1c(=O)n(-c2ccc(C(C)(C)C#N)cc2)c2c3cc(-c4cnc5ccccc5c4)ccc3ncc21 [NVP-BEZ235] (first compound 0.01 µM, partner dose 0.004 µM)
cleaved PARP positive nuclei fraction (501Mel): 77% | cleaved PARP positive nuclei fraction (A101D): 173% | cleaved PARP positive nuclei fraction (A2058): 152% | cleaved PARP positive nuclei fraction (A375): 54.5% | cleaved PARP positive nuclei fraction (C32): 75.3% | cleaved PARP positive nuclei fraction (CBRC008): 1680% | cleaved PARP positive nuclei fraction (CBRC014): 102% | cleaved PARP positive nuclei fraction (CBRC016): 987% | cleaved PARP positive nuclei fraction (CBRC017): 400% | cleaved PARP positive nuclei fraction (CBRC034): 1590% | cleaved PARP positive nuclei fraction (COLO792): 355% | cleaved PARP positive nuclei fraction (COLO800): 354% | cleaved PARP positive nuclei fraction (COLO829): 169% | cleaved PARP positive nuclei fraction (G361): 4730% | cleaved PARP positive nuclei fraction (IPC-298): 334% | cleaved PARP positive nuclei fraction (IST-MEL1): 209% | cleaved PARP positive nuclei fraction (LB2518-MEL): 155% | cleaved PARP positive nuclei fraction (LOXIMVI): 221% | cleaved PARP positive nuclei fraction (MEL-HO): 158%

Cc1cc(Nc2cc(N3CCN(C)CC3)nc(Sc3ccc(NC(=O)C4CC4)cc3)n2)n[nH]1 [Tozasertib] + CC(=O)O[C@@]12CO[C@@H]1C[C@H](O)[C@@]1(C)C(=O)[C@H](O)C3=C(C)[C@@H](OC(=O)[C@H](O)[C@@H](NC(=O)OC(C)(C)C)c4ccccc4)C[C@@](O)([C@@H](OC(=O)c4ccccc4)[C@H]21)C3(C)C [Docetaxel] (first compound 0.006 µM, partner dose 0.0001 µM)
cleaved PARP positive nuclei fraction (501Mel): 111% | cleaved PARP positive nuclei fraction (A101D): 216% | cleaved PARP positive nuclei fraction (A2058): 2510% | cleaved PARP positive nuclei fraction (A375): 701% | cleaved PARP positive nuclei fraction (C32): 111% | cleaved PARP positive nuclei fraction (CBRC008): 261% | cleaved PARP positive nuclei fraction (CBRC014): 106% | cleaved PARP positive nuclei fraction (CBRC016): 487% | cleaved PARP positive nuclei fraction (CBRC017): 169% | cleaved PARP positive nuclei fraction (CBRC034): 97.2% | cleaved PARP positive nuclei fraction (COLO792): 215% | cleaved PARP positive nuclei fraction (COLO800): 194% | cleaved PARP positive nuclei fraction (COLO829): 274% | cleaved PARP positive nuclei fraction (G361): 498% | cleaved PARP positive nuclei fraction (IPC-298): 313% | cleaved PARP positive nuclei fraction (IST-MEL1): 148% | cleaved PARP positive nuclei fraction (LB2518-MEL): 72.8% | cleaved PARP positive nuclei fraction (LOXIMVI): 190% | cleaved PARP positive nuclei fraction (MEL-HO): 525%

Cc1cc(Nc2cc(N3CCN(C)CC3)nc(Sc3ccc(NC(=O)C4CC4)cc3)n2)n[nH]1 [Tozasertib] + CS(=O)(=O)c1ccc(C(=O)Nc2ccc(Cl)c(-c3ccccn3)c2)c(Cl)c1 [vismodegib] (first compound 0.006 µM, partner dose 1 µM)
cleaved PARP positive nuclei fraction (501Mel): 73.8% | cleaved PARP positive nuclei fraction (A101D): 180% | cleaved PARP positive nuclei fraction (A2058): 287% | cleaved PARP positive nuclei fraction (A375): 21.5% | cleaved PARP positive nuclei fraction (C32): 88.4% | cleaved PARP positive nuclei fraction (CBRC008): 86.7% | cleaved PARP positive nuclei fraction (CBRC014): 98.7% | cleaved PARP positive nuclei fraction (CBRC016): 178% | cleaved PARP positive nuclei fraction (CBRC017): 81.2% | cleaved PARP positive nuclei fraction (CBRC034): 66.9% | cleaved PARP positive nuclei fraction (COLO792): 59.7% | cleaved PARP positive nuclei fraction (COLO800): 96.1% | cleaved PARP positive nuclei fraction (COLO829): 112% | cleaved PARP positive nuclei fraction (G361): 120% | cleaved PARP positive nuclei fraction (IPC-298): 215% | cleaved PARP positive nuclei fraction (IST-MEL1): 133% | cleaved PARP positive nuclei fraction (LB2518-MEL): 132% | cleaved PARP positive nuclei fraction (LOXIMVI): 117% | cleaved PARP positive nuclei fraction (MEL-HO): 129%

Cc1ccc(Nc2nccc(N(C)c3ccc4c(C)n(C)nc4c3)n2)cc1S(N)(=O)=O [Pazopanib] + COc1ccc(Cl)c(Nc2nc3ccccc3nc2NS(=O)(=O)c2cccc(NC(=O)C(C)(C)N)c2)c1 [XL147] (first compound 0.4 µM, partner dose 0.8 µM)
cleaved PARP positive nuclei fraction (501Mel): 83.9% | cleaved PARP positive nuclei fraction (A101D): 51.3% | cleaved PARP positive nuclei fraction (A2058): 192% | cleaved PARP positive nuclei fraction (A375): 181% | cleaved PARP positive nuclei fraction (C32): 75.6% | cleaved PARP positive nuclei fraction (CBRC008): 256% | cleaved PARP positive nuclei fraction (CBRC014): 135% | cleaved PARP positive nuclei fraction (CBRC016): 124% | cleaved PARP positive nuclei fraction (CBRC017): 125% | cleaved PARP positive nuclei fraction (CBRC034): 86% | cleaved PARP positive nuclei fraction (COLO792): 94% | cleaved PARP positive nuclei fraction (COLO800): 80.8% | cleaved PARP positive nuclei fraction (COLO829): 67.8% | cleaved PARP positive nuclei fraction (G361): 101% | cleaved PARP positive nuclei fraction (IPC-298): 207% | cleaved PARP positive nuclei fraction (IST-MEL1): 32.2% | cleaved PARP positive nuclei fraction (LB2518-MEL): 53.2% | cleaved PARP positive nuclei fraction (LOXIMVI): 158% | cleaved PARP positive nuclei fraction (MEL-HO): 73.5%

O=C(/C=C/c1cccnc1)NCCCCC1CCN(C(=O)c2ccccc2)CC1 + CN1CCN(c2ccc3nc(-c4c(N)c5c(F)cccc5[nH]c4=O)[nH]c3c2)CC1 [Dovitinib] (first compound 0.01 µM, partner dose 0.1 µM)
cleaved PARP positive nuclei fraction (501Mel): 85.6% | cleaved PARP positive nuclei fraction (A101D): 52.4% | cleaved PARP positive nuclei fraction (A2058): 113% | cleaved PARP positive nuclei fraction (A375): 168% | cleaved PARP positive nuclei fraction (C32): 69.8% | cleaved PARP positive nuclei fraction (CBRC008): 6150% | cleaved PARP positive nuclei fraction (CBRC014): 110% | cleaved PARP positive nuclei fraction (CBRC016): 1600% | cleaved PARP positive nuclei fraction (CBRC017): 575% | cleaved PARP positive nuclei fraction (CBRC034): 2470% | cleaved PARP positive nuclei fraction (COLO792): 351% | cleaved PARP positive nuclei fraction (COLO800): 110% | cleaved PARP positive nuclei fraction (COLO829): 432% | cleaved PARP positive nuclei fraction (G361): 2000% | cleaved PARP positive nuclei fraction (IPC-298): 337% | cleaved PARP positive nuclei fraction (IST-MEL1): 101% | cleaved PARP positive nuclei fraction (LB2518-MEL): 265% | cleaved PARP positive nuclei fraction (LOXIMVI): 149% | cleaved PARP positive nuclei fraction (MEL-HO): 582%
